Results reported in the supplement of paper PMC4371806.
Whole data set: some 1,600 compounds, median “plate-normalized OD600 growth (mean of duplicates)” near 0.31, cut for the lowest 2% near 0.23. The list shows a part of the results.

Tested on: Escherichia coli BW25113
Experiment: plate-normalized OD600 growth (mean of duplicates) (OD600 (normalized)); higher = more growth (less inhibition)
Details: 10 µM
Description: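 E. coli BW25113 in LB (100 µl, 96-well, no shaking) was exposed to 10 µM of each compound (here the ChemBridge subset of a ~30,000-member library) and grown at 37°C for 24 h or 15°C for 48 h, in duplicate. Growth was read as OD600 and the duplicate ODs were normalized across screening plates to correct plate-to-plate variation.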

Compound	plate-normalized OD600 growth (temperature: 15°C, 48 h)	plate-normalized OD600 growth (temperature: 37°C, 24 h)
CC(CCN1CCCN(C)CC1)c1ccccc1 (stereo not given)	0.254	0.614
CCOc1c(/C=C(\C#N)c2nc3ccccc3[nH]2)cccc1OC	0.234	0.608
O=[N+]([O-])c1ccc(N2CCN(CC(O)COc3ccccc3)CC2)cc1 (stereo not given)	0.237	0.623
N#CSCCCOc1ccc(Cl)cc1	0.241	0.613
CCCCc1c(C(=O)O)cc(C)cc1C(=O)O	0.239	0.631
C(=C\c1ccccc1)/CN1CCN(C2CCc3ccccc3C2)CC1 (stereo not given)	0.257	0.605
CS(=O)(=O)N1CCN(C/C=C/c2ccccc2)CC1	0.237	0.61
NNC(=O)c1cc(-c2ccc([N+](=O)[O-])cc2)nc2ccccc12	0.251	0.647
O=[N+]([O-])c1ccccc1/C=C/CN1CCCCC1CO (stereo not given)	0.264	0.63
Cc1ccc2c(c1)c1c(n2C)C(C(N)=O)CCC1 (stereo not given)	0.256	0.619
O=C(c1ccc(F)cc1)N(Cc1ccccc1)Cc1ccccc1	0.268	0.627
C#CCN1C(=O)C(O)(CC(=O)c2ccc3c(c2)CCCC3)c2ccccc21 (stereo not given)	0.252	0.599
N#C/C(=C/c1ccccc1Cl)c1nc(-c2ccccc2)cs1	0.247	0.607
Cn1cccc1C1Nc2ccccc2NC2=C1C(=O)CC(C)(C)C2 (stereo not given)	0.222	0.609
CN1CCN(C/C=C/c2ccc(N(C)C)cc2)CC1	0.265	0.658
CN(Cc1ccccc1)C1CC(=O)N(c2ccc(C(=O)O)cc2)C1=O (stereo not given)	0.246	0.621
Cc1ccc(N(CC(=O)NC(C)C)S(=O)(=O)c2ccccc2)cc1	0.242	0.63
CN1CCc2oc3ccc(N)cc3c2C1	0.246	0.615
Cc1ccc(NS(=O)(=O)c2ccc(F)cc2)cc1C	0.25	0.619
CC(=O)NC(Cc1ccccc1)Cc1ccccc1	0.248	0.608
CN(C)c1ccc2c(c1)OC(N)=C(C#N)C2c1cc(Br)cs1 (stereo not given)	0.26	0.617
N#Cc1ccc(Oc2ccc(C#N)cc2)cc1	0.258	0.641
CN1CCN(C2CC(=O)N(c3cc(Cl)cc(Cl)c3)C2=O)CC1 (stereo not given)	0.266	0.656
NNC(=O)C(NC(=O)c1ccccc1)c1n[nH]c(=O)c2ccccc12 (stereo not given)	0.261	0.636
Cc1ccccc1NC(=O)c1cccc(S(=O)(=O)Nc2cccc([N+](=O)[O-])c2)c1	0.256	0.626
CC(=O)c1c(C)oc2ccc(O)c(CN3CCOCC3)c12	0.255	0.616
O=C(O)c1ccc(S(=O)(=O)N2CCOCC2)cc1	0.24	0.63
Cc1ccnc(NS(=O)(=O)c2ccc(C(C)(C)C)cc2)c1	0.259	0.615

A second format for part of the listing above.
Cc1ccc2c(c1)c1c(n2C)C(C(N)=O)CCC1 (stereo not given)
  plate-normalized OD600 growth (temperature: 15°C, 48 h): 0.256; plate-normalized OD600 growth (temperature: 37°C, 24 h): 0.619
O=C(c1ccc(F)cc1)N(Cc1ccccc1)Cc1ccccc1
  plate-normalized OD600 growth (temperature: 15°C, 48 h): 0.268; plate-normalized OD600 growth (temperature: 37°C, 24 h): 0.627
C#CCN1C(=O)C(O)(CC(=O)c2ccc3c(c2)CCCC3)c2ccccc21 (stereo not given)
  plate-normalized OD600 growth (temperature: 15°C, 48 h): 0.252; plate-normalized OD600 growth (temperature: 37°C, 24 h): 0.599
N#C/C(=C/c1ccccc1Cl)c1nc(-c2ccccc2)cs1
  plate-normalized OD600 growth (temperature: 15°C, 48 h): 0.247; plate-normalized OD600 growth (temperature: 37°C, 24 h): 0.607

Remaining list, next part.

Compound	plate-normalized OD600 growth (temperature: 15°C, 48 h)	plate-normalized OD600 growth (temperature: 37°C, 24 h)
O=C(Nc1ccc(Cl)cc1)C(O)(c1ccccc1)c1ccccc1	0.246	0.621
CCOc1cc(C)nn1-c1ccccc1	0.253	0.612
Oc1ccccc1-c1cc(-c2ccccc2)n[nH]1	0.27	0.643
Cc1ccc(C)c(S(=O)(=O)Nc2ccccc2Cl)c1	0.251	0.6
CN(C)c1ccc(/C=C/c2ccnc3ccccc23)cc1	0.26	0.627
Cc1ccc2[nH]c3c(c2c1)CCCC3O (stereo not given)	0.246	0.625
CC(CN1CCCC(C(N)=O)C1)c1ccccc1 (stereo not given)	0.261	0.623
O=S(=O)(Nc1ccc2c(c1)OCO2)c1ccc(Cl)cc1	0.24	0.607
C#CCSc1nc2c(cc1C#N)CCCC2	0.237	0.61
COc1cc(NC(=O)c2ccc([N+](=O)[O-])cc2)cc(OC)c1	0.267	0.674
NC(=O)c1cc(-c2ccccc2)sc1N	0.247	0.612
NCC(=O)Nc1ccc(Br)cc1	0.227	0.606
NNc1nc2sc3c(c2c(=O)n1Cc1ccccc1)CCCC3	0.259	0.626
c1ccc(CN2C3=NCCCN3c3ccccc32)cc1	0.249	0.625
CCN(CC)CCCOc1ccc(C)cc1	0.255	0.632
CCc1cc2c(=O)c(-c3nc4ccccc4s3)c(C)oc2cc1O	0.259	0.622
COc1cc(NC(=O)c2cccc(Br)c2)c(OC)cc1Cl	0.252	0.613
O=[N+]([O-])c1ccc(N2CCN(S(=O)(=O)c3ccc(Cl)cc3)CC2)cc1	0.267	0.658
CCS(=O)(=O)N1CCN(C(=O)c2ccc(OC)cc2)CC1	0.262	0.617
COc1ccc(C2=NN(CCc3ccccn3)C(=O)C2)cc1	0.234	0.615
O=C(Nc1ccccc1[N+](=O)[O-])c1cccc(S(=O)(=O)N2CCCCC2)c1	0.243	0.601
CCS(=O)(=O)C(=C1Nc2ccccc2N1)S(=O)(=O)CC	0.253	0.611
CN(C)C(=O)CCc1cc(C(C)(C)C)c(O)c(C(C)(C)C)c1	0.251	0.63
N#CC1=C(N)SC(N)=C(C#N)C1c1ccco1	0.258	0.634
COc1ccc(CNCc2ccc(OC)cc2)cc1	0.256	0.621
COc1ccc(N/C=C(/C#N)c2nc(-c3cccs3)cs2)cc1	0.23	0.616
COc1ccc(Br)cc1/C=C/C(=O)c1cccs1	0.239	0.626
